{"source": "PubChem BioAssay AID504793 | Drosophila RNAi Screening Center | 2011", "test": "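Genes required for cells to halt at G2/M after double-strand DNA breaks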 (primary screen)", "system": "Drosophila S2R+ cells", "knock-down reagent": "long dsRNA against Drosophila genes, about 0.25 µg dsRNA per well", "duration": "4 days of dsRNA, then 4 hours of drug before read-out", "challenge": "doxorubicin 0.5 µM for 4 hours to cause double-strand breaks, in cells also given a low, harmless dose of dsRNA against nbs to sensitise the assay", "read-out": "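Per-well count of mitotic cells stained for phospho-histone H3 after doxorubicin exposure, used as mitotic index; counts are raw and not normalised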", "direction": "mitotic cells: higher = more cells in mitosis, weaker G2 arrest", "hit rule": "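Genes are called active only when high mitotic counts were reproduced with independent dsRNAs and mitosis was checked for delay without damage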", "meaning of the calls": "active = confirmed in follow-up tests; inactive = not confirmed", "note": "The deposit covers about 23,000 reagents; shown is a random part of those that have a named target and a result. In the full data, 62 (0.27%) were called active. 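Calls come from follow-up tests whose scores are not deposited, so confirmed genes may have low counts here; counts are not normalised per plate.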 The raw values are shown without normalisation. A number with no mark means an inactive call. Reagent sequences are not shown."}
{"Gene": "Gr94a", "DRSC id": "DRSC13597", "mitotic cells, replicate 1": 11}
{"Gene": "c(3)G", "DRSC id": "DRSC15245", "mitotic cells, replicate 1": 6}
{"Gene": "c(3)G", "DRSC id": "DRSC26062", "mitotic cells, replicate 1": 5}
{"Gene": "Pkd2", "DRSC id": "DRSC02962", "mitotic cells, replicate 1": 5}
{"Gene": "Pkd2", "DRSC id": "DRSC27522", "mitotic cells, replicate 1": 2}
{"Gene": "CG12470", "DRSC id": "DRSC18620", "mitotic cells, replicate 1": 9}
{"Gene": "CG2875", "DRSC id": "DRSC18231", "mitotic cells, replicate 1": 8}
{"Gene": "Pax", "DRSC id": "DRSC01703", "mitotic cells, replicate 1": 8}
{"Gene": "Pax", "DRSC id": "DRSC02651", "mitotic cells, replicate 1": 7}
{"Gene": "Pax", "DRSC id": "DRSC02652", "mitotic cells, replicate 1": 4}
{"Gene": "Snx1", "DRSC id": "DRSC00531", "mitotic cells, replicate 1": 5}
{"Gene": "tRNA:Leu-CAA-2-3", "DRSC id": "DRSC13633", "mitotic cells, replicate 1": 5}
{"Gene": "CG17780", "DRSC id": "DRSC15265", "mitotic cells, replicate 1": 17}
{"Gene": "B4", "DRSC id": "DRSC01868", "mitotic cells, replicate 1": 6}
{"Gene": "B4", "DRSC id": "DRSC03175", "mitotic cells, replicate 1": 7}
{"Gene": "CG8837", "DRSC id": "DRSC00711", "mitotic cells, replicate 1": 4}
{"Gene": "CG8837", "DRSC id": "DRSC29440", "mitotic cells, replicate 1": 5}
{"Gene": "CG16749", "DRSC id": "DRSC15146", "mitotic cells, replicate 1": 6}
{"Gene": "CG16749", "DRSC id": "DRSC25605", "mitotic cells, replicate 1": 4}
{"Gene": "Polr2F", "DRSC id": "DRSC12366", "mitotic cells, replicate 1": "17 (active)"}
{"Gene": "Polr2F", "DRSC id": "DRSC28784", "mitotic cells, replicate 1": 12}
{"Gene": "betaNACtes2", "DRSC id": "DRSC19792", "mitotic cells, replicate 1": 12}
{"Gene": "Mlp60A", "DRSC id": "DRSC04623", "mitotic cells, replicate 1": 13}
{"Gene": "Mlp60A", "DRSC id": "DRSC22233", "mitotic cells, replicate 1": 17}
{"Gene": "Mlp60A", "DRSC id": "DRSC22481", "mitotic cells, replicate 1": 14}
{"Gene": "Hsp67Bc", "DRSC id": "DRSC11193", "mitotic cells, replicate 1": 2}
{"Gene": "Hsp67Bc", "DRSC id": "DRSC28175", "mitotic cells, replicate 1": 3}
{"Gene": "Aasdh", "DRSC id": "DRSC03467", "mitotic cells, replicate 1": 6}
{"Gene": "Hyccin", "DRSC id": "DRSC06983", "mitotic cells, replicate 1": 5}
{"Gene": "Nrg", "DRSC id": "DRSC17573", "mitotic cells, replicate 1": 5}
{"Gene": "Nrg", "DRSC id": "DRSC18688", "mitotic cells, replicate 1": 4}
{"Gene": "Nrg", "DRSC id": "DRSC27797", "mitotic cells, replicate 1": 5}
{"Gene": "GstE8", "DRSC id": "DRSC06678", "mitotic cells, replicate 1": 4}
{"Gene": "Eaat2", "DRSC id": "DRSC00032", "mitotic cells, replicate 1": 13}
{"Gene": "Eaat2", "DRSC id": "DRSC00749", "mitotic cells, replicate 1": 4}
{"Gene": "Eaat2", "DRSC id": "DRSC26070", "mitotic cells, replicate 1": 11}

In a second layout: 4 of the entries above
{"Gene":"B4","DRSC id":"DRSC03175","mitotic cells, replicate 1":7}
{"Gene":"CG8837","DRSC id":"DRSC00711","mitotic cells, replicate 1":4}
{"Gene":"CG8837","DRSC id":"DRSC29440","mitotic cells, replicate 1":5}
{"Gene":"CG16749","DRSC id":"DRSC15146","mitotic cells, replicate 1":6}
